Measured values: patent US10287530B2, “Surfactants based on monounsaturated fatty alcohol derivatives” (priority 2013, dated 2019)

Test: Gardner Straight-Line Washability Test (aqueous degreaser, greasy dirt soil on white vinyl tile)
Conditions: versus control (WA-Extra)

| Substance | Rating |
| --- | --- |
| 1-Undecanol, 3EO Ether Sulfate, Sodium Salt [Sat. C11 alcohol 3EO Na sulfate] | equal |
| Undecylenic Alcohol, 3EO Ether Sulfate, Sodium Salt [Unsat. C11 alcohol 3EO Na sulfate] | equal |
| Undecylenic Alcohol Sulfate, Sodium Salt [Unsat. C11 alcohol Na sulfate] | equal |
